Source: US6620616B1, “Nucleic acids encoding nitric oxide synthase variants” (The Cleveland Clinic Foundation, priority 2000, dated 2003)

Assay: NADPH oxidation
Assay type: biochemical
Conditions: theoretical minimum 1.5
Description: The initial rate of NO synthesis, NADPH oxidation, or cytochrome c reduction by wild type and mutants was quantitated at 25° C. as described in Abu-Soud et al. (1997) J. Biol. Chem 272: 10769-10772. H2O2-dependent nNOS oxidation of NOHA to nitrite was assayed in 96-well microplates at 30° C. The assay volume was 100 μl and contained 40 mM EPPS, pH 7.6, 250 nM nNOS or mutants, 1 mM NOHA, 1 mM DTT, 25 units/ml superoxide dismutase 0.5 mM EDTA, and 4 μM H4B. Reactions were initiated by adding 30 mM H2O2 and stopped after 10 min by adding 1300 units of catalase. Nitrite was detected at 550 nm using the Griess reagent (100 μL) and quantitated based on nitrite standards.

| Substance | calculated NADPH stoichiometry |
| --- | --- |
| W409F: rat nNOS variant with phenylalanine (F) at position 409 in place of tryptophan, His6-tagged, expressed in E. coli | 1.6 mol of NADPH oxidized/mol of NO generated from Arg |
| W409Y: rat nNOS variant with tyrosine (Y) at position 409 in place of tryptophan, His6-tagged, expressed in E. coli | 1.5 mol of NADPH oxidized/mol of NO generated from Arg |
| nNOS: wild-type rat neuronal nitric oxide synthase, His6-tagged, expressed in E. coli; non-variant comparator [reference compound] | 1.7 mol of NADPH oxidized/mol of NO generated from Arg |
